Laboratory results: paper PMC5520900
These are yes or no findings as the source states them, for the method shown. Binding seen in cells or lysates may run through a third protein. Some results given as binding are weak or reduced against the parent protein; the word gives no strength. Sequences can lack the tags named with a protein.

Molecular target: T1, AKAP121 (mouse) (UniProt O08715)
T1 sequence: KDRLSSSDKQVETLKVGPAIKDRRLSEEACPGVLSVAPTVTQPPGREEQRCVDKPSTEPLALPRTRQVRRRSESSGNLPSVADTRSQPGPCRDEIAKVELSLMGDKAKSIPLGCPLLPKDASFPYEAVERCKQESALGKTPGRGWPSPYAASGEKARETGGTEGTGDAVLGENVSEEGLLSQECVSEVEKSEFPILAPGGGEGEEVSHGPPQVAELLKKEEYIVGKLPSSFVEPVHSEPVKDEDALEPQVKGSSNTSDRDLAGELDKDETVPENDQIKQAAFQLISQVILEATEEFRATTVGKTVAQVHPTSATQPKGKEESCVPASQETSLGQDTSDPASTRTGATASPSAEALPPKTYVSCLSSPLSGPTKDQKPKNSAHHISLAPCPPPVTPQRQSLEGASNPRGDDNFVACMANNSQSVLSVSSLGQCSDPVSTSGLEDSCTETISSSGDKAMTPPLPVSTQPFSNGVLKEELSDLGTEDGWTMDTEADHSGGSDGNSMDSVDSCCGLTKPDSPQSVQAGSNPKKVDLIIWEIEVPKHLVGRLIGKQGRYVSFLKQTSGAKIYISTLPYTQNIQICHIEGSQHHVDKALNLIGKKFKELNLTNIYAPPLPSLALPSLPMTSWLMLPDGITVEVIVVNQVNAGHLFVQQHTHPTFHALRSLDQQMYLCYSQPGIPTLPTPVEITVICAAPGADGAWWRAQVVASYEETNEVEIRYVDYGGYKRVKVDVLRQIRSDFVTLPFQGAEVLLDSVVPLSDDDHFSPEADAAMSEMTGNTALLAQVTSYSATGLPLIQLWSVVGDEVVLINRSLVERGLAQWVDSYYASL
Assay: co-IP; HEK293 cells transiently transfected with AKAP121 and sestrin2-flag; untreated or treated with H2O2 (400 uM for 0.5, 1 and 3 h, or 1 h at increasing concentrations); lysis in TBS with 1% Triton X-100, 150 mM NaCl, 50 mM Tris-HCl pH 7.5; immunoprecipitation with anti-AKAP121 antibody, immunoblot

B1: sestrin2-flag (protein, UniProt P58004 1-480)
chain: MIVADSECRAELKDYLRFAPGGVGDSGPGEEQRESRARRGPRGPSAFIPVEEVLREGAESLEQHLGLEALMSSGRVDNLAVVMGLHPDYFTSFWRLHYLLLHTDGPLASSWRHYIAIMAAARHQCSYLVGSHMAEFLQTGGDPEWLLGLHRAPEKLRKLSEINKLLAHRPWLITKEHIQALLKTGEHTWSLAELIQALVLLTHCHSLSSFVFGCGILPEGDADGSPAPQAPTPPSEQSSPPSRDPLNNSGGFESARDVEALMERMQQLQESLLRDEGTSQEEMESRFELEKSESLLVTPSADILEPSPHPDMLCFVEDPTFGYEDFTRRGAQAPPTFRAQDYTWEDHGYSLIQRLYPEGGQLLDEKFQAAYSLTYNTIAMHSGVDTSVLRRAIWNYIHCVFGIRYDDYDYGEVNQLLERNLKVYIKTVACYPEKTTRRMYNLFWRHFRHSEKVHVNLLLLEARMQAALLYALRAITRYMT
In the case of B1, the binding is reported as “binds”.
